Here are results for 1 molecule from paper PMC10296415, “Methyl-Thiol-Bridged Oxadiazole and Triazole Heterocycles as Inhibitors of NF-κB in Chronic Myelogenous Leukemia Cells” (Biomedicines, 2023).

SMILES strings stand for the structures.

The test deals with MCF-7 cell line. In words: MTT cell viability assay, MCF-7. As to conditions: Homo sapiens, MCF7, viability of MCF-7 cell line. It counts as cell-based. Here is the method: MCF-7 cells were purchased from Procell Life Science and Technology Co., Ltd., Wuhan, China, and cultured in MEM or Leibovitz’s L-15 medium containing 2% FBS. MCF-7 cells were maintained in a 5% CO2-humidified atmosphere at 37 °C. KCL22, LAMA84, and K562 cells were obtained from the American Type Culture Collection (Manassas, VA, USA). The KBM5 cell line was previously provided by Dr. Bharat Aggarwal (University of Texas M.D. Anderson Cancer Center, Houston, TX, USA). KBM5 cells were cultured in IMDM medium with 10% inactivated FBS and 1% penicillin-streptomycin. KCL22, LAMA84, and K562 cells were cultured in RPMI with 10% FBS and 1% penicillin-streptomycin antibiotics and maintained at 37 °C in a 5% CO2 chamber.
Cells (1 × 10^4 cells/well) were seeded on a 96-well plate and treated with 4c (0, 5, 10, 15, 30, 50 µM) for 24 h. After 24 h of treatment, 30 µL of MTT solution (2 mg/mL) for 2 h, followed by MTT lysis overnight. Cell viability was analyzed by measuring the absorbance of lysed MTT crystals using VARIOSKAN LUX (Thermo Fisher Scientific Inc., Waltham, MA, USA) at 570 nm.
On the technique in general: Formazan colour is commonly taken as a measure of viable cells.

Broadly, the IC50 is the concentration at which inhibition is half-maximal. A low value points to greater potency in that assay. The molecule `CC/C(=C(\c1ccccc1)c1ccc(OCCN(C)C)cc1)c1ccccc1` [Tamoxifen, reference compound] registered a 50% inhibitory concentration (IC50) of 1450 ± 160 nM.
